# PubChem BioAssay AID1259425 – University of Nebraska Medical Center – 2018
# Test: 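Seek colon cancer weak points whose silencing resembles KSR1 loss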 (primary screen)
# System: HCT116 human colon cancer cells
# Reagent: siRNA pool against human genes, 50 nM siRNA
# Read-out: 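mRNA of six signature genes measured together by branched-DNA assay after 50 nM siRNA pool, blank removed, divided by geometric mean of two housekeeping genes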
# Scale: BNIP3L mRNA: higher = more BNIP3L transcript after knockdown; NDRG1 mRNA: higher = more NDRG1 transcript after knockdown; BNIP3 mRNA: higher = more BNIP3 transcript after knockdown; ALDOC mRNA: higher = more ALDOC transcript after knockdown; ACSL5 mRNA: higher = more ACSL5 transcript after knockdown
# The whole screen tested about 14,000 reagents; shown is a random part of them. Not stated in the record: the time to read-out.
Target gene,"BNIP3L mRNA, set 1","NDRG1 mRNA, set 1","BNIP3 mRNA, set 1","ALDOC mRNA, set 1","ACSL5 mRNA, set 1"
PIH1D1,0.143,0.516,0.404,0.0227,0.219
CRIM1,0.112,0.0651,0.359,0.0214,0.109
CYP7A1,0.167,0.339,0.351,0.0322,0.231
RBKS,0.133,0.0907,0.31,0.00811,0.199
VARS2,0.196,0.049,0.354,0.0969,0.202
KIF25-AS1,0.112,0.186,0.41,0.0333,0.148
CNOT3,0.102,0.442,0.322,0.00531,0.137
MGAT5,0.103,0.159,0.251,0.0179,0.124
ADGRG1,0.2,0.0956,0.253,0.0322,0.132
ADAMTS5,0.077,0.0553,0.205,0.0238,0.0801
IFT27,0.0764,0.291,0.193,0.0227,0.196
DHX16,0.064,0.0957,0.186,0.0278,0.112
KBTBD8,0.124,0.195,0.246,0.0489,0.0561
PDE1A,0.0742,0.235,0.278,0.0209,0.178
TNN,0.0984,0.104,0.127,0.0359,0.0982
PRDX6,0.107,0.202,0.188,0.0165,0.133
P2RX6,0.133,0.23,0.349,0.0286,0.227
SURF6,0.151,0.352,0.204,0.0171,0.175
MAPKAPK2,0.0639,0.219,0.228,0.00405,0.262
ANAPC11,0.153,0.274,0.263,0.127,0.076

Single entries from the list.
PDE1A, ACSL5 mRNA, set 1 → 0.178
Result for DHX16 in “NDRG1 mRNA, set 1”: 0.0957
